In PubChem BioAssay AID1347426 (Functional Genomics Laboratory (NCATS/FGL), 2020):
In all, about 31,000 sequences went through this assay and about 1,400 (4.5%) were called active.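 How the source made its calls: active means median seed-adjusted z-score above 1 or below -1; inactive means the rest.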 The list shows a part of the results.

Experiment: Novel Modifiers of Survival Motor Neuron (SMN) Protein: Gene Identification via Genome-wide siRNA Screen;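 further: luminescence tracks full-length SMN protein made from the SMN2 reporter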
Conditions: HEK293T SMN2-luciferase reporter, siRNA knockdown, 72 h; actives lie on both sides
Method in brief: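 siRNA screen, 10418 genes ×3 siRNAs; 1 pmol/well, lipid reverse transfection into HEK293T SMN2-luc reporter line. 72 h, 37 °C, 5% CO2; ONE-Glo readout. Data: neg-ctrl normalized, log10, MAD; hit = MAD >1.0 or < -1.0.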

Row | Sequence | median seed-adjusted z-score
1 | GGAGGGUCGUCUCAAGUAUTT against YWHAZ | inactive: 0.721
2 | CAAGGAUAUAUCAAACUAUTT against MMP8 | inactive: -0.781
3 | CGCCGACUGUCAUGCUUCATT against FCN1 | inactive: 0.346
4 | GAUCCUAAAGAAAACUCUATT against TRHR | inactive: -0.873
5 | AGCUUGCACUGCACCGCAATT against ZNF672 | inactive: 0.35
6 | GUCUUGUCCCAGAACCUUUTT against RPN2 | inactive: -0.217
7 | CUUAAUUGGUUUACCCAAATT against NEK3 | inactive: 0.118
8 | GAUUGUCACAGAUAAUCUATT against BAI2 | inactive: -0.114
9 | CCAUCCUUCAGGCGAAUUATT against ACTR8 | inactive: -0.366
10 | GCAUCCUCCUGUACGAGAATT against GPR68 | inactive: -0.0233
11 | UGAUAUCUUUCUGUAUGAATT against TRIM49 | inactive: 0.0648
12 | GCAUCUUCACUGUAAAGGATT against AHSA2 | inactive: -0.881
13 | GCUCAGGAACUGACCGCAATT against HOXB7 | inactive: -0.153
14 | GGACGACAAUGAGCACAGATT against PLD1 | inactive: 0.518
15 | GCUUAUAUGUUACCAUGGATT against COG4 | inactive: -0.508
16 | GUGUAGAAGAGGACGUGAATT against RIPK1 | inactive: -0.0157
17 | AGACCACCUUCAUCCGACATT against EHD1 | inactive: -0.616
18 | CCAGAGGCCCAACGACUAATT against PTGER1 | inactive: 0.383
19 | GGAGGAACGCGAAAAGGUATT against SEPHS2 | inactive: -0.392
20 | CCAACUCGGCAAAACCGUUTT against NDUFS3 | inactive: -0.54
21 | GAAUGAGUUUUGUCAUGGATT against SUV39H2 | inactive: -0.279
22 | GAAUGAUGUUGACAUGAGUTT against SSR1 | inactive: -0.434
23 | GCCUAUCGAGUCAAGUAUATT against QARS | inactive: -0.411
24 | GGCUGGUAUGUCUGCAGAATT against GSTK1 | inactive: 0.234
25 | GCCCUAGAGUUAUUACAAATT against SLC29A3 | inactive: -0.0626
26 | GAACAGAUGUUUGAGACUUTT against GUCA1A | inactive: 0.101
27 | GCAUCCCAACGAAUUUCCUTT against ZNF701 | inactive: -0.0161
28 | CAAUCCAGGUGAUCGCAAATT against TPMT | inactive: 0.19
29 | GGAAAUGCUUUAUAGAUCATT against TMTC2 | inactive: 0.0277
30 | AGGUGACAGUUAAACAUGATT against ZNF497 | inactive: -0.33

A few values from the entries so far:
median seed-adjusted z-score, CCAACUCGGCAAAACCGUUTT against NDUFS3 reads inactive: -0.54
median seed-adjusted z-score, GGACGACAAUGAGCACAGATT against PLD1 reads inactive: 0.518
